Reference: US8653003B2, “Pyrazol-4-yl carboxamide derivatives as microbiocides” (Syngenta Participations AG, priority 2011, dated 2014)
Some of these results come from one statement about several compounds together.

Tests used:
Puccinia recondita [1] = test: Curative action against Puccinia recondita (brown rust) on wheat leaf segments; type: in vivo; settings: 0.02% active ingredient sprayed one day after inoculation, assessed 8 days after inoculation
Procedure: Wheat leaf segments were placed on agar in multiwell plates (24-well format) and inoculated with a spore suspension of the fungus. One day after inoculation the leaf segments were sprayed with test solutions (0.02% active ingredient). After appropriate incubation the activity of a compound was assessed 8 days after inoculation as curative fungicidal activity.

[2] = tested on: Mycosphaerella arachidis (Cercospora arachidicola [anamorph]); test: Action against Mycosphaerella arachidis (early leaf spot of groundnut) - fungal growth assay; type: cell-based; settings: 0.002% active ingredient, PDB broth, 24° C., photometric after 6-7 days
Procedure: (§1) Conidia of the fungus from cryogenic storage were directly mixed into nutrient broth (Pdb potato dextrose broth). After placing a (DMSO) solution of the test compounds (0.002% active ingredient) into a microtiter plate (96-well format) the nutrient broth containing the fungal spores was added. The test plates were incubated at 24° C. and the inhibition of growth was measured photometrically after 6-7 days. The activity of a compound was expressed as fungal growth inhibition (0=no growth inhibition, ratings of 80% to 99% mean good to very good inhibition, 100%=complete inhibition).

[3] = tested on: Erysiphe graminis f. sp. tritici; test: Action against Erysiphe graminis f. sp. tritici (wheat powdery mildew), wheat leaf segments; type: in vivo; settings: 0.02% active ingredient sprayed on wheat leaf segments, assessed 7 days after inoculation
Procedure: (§2) Wheat leaf segments were placed on agar in multiwell plates (24-well format) and sprayed with test solutions (0.02% active ingredient). After drying, the leaf disks were inoculated with a spore suspension of the fungus. After appropriate incubation the activity of a compound was assessed 7 days after inoculation as preventive fungicidal activity.

Septoria tritici = test: Action against Septoria tritici - fungal growth assay; type: cell-based; settings: 0.002% active ingredient, PDB broth, 24° C., photometric after 72 hrs
Procedure: as §1, with “(PDB” for “(Pdb”, “determined” for “measured”, “72 hrs.” for “6-7 days.”

Pyrenophora teres = test: Action against Pyrenophora teres (net blotch) on barley leaf segments; type: in vivo; settings: 0.02% active ingredient sprayed on barley leaf segments, assessed 4 days after inoculation
Procedure: as §2, with “Barley” for “Wheat”, “4” for “7”

Puccinia recondita [4] = test: Protective action against Puccinia recondita (brown rust) on wheat leaf segments; type: in vivo; settings: 0.02% active ingredient sprayed on wheat leaf segments, assessed 8 days after inoculation
Procedure: as §2, with “8” for “7”

Botrytis cinerea = test: Action against Botrytis cinerea - fungal growth assay; type: cell-based; settings: 0.002% active ingredient, PDB broth, 24° C., photometric after 3-4 days
Procedure: as §1, with “storage was” for “storage were”, “broth (PDB” for “broth (Pdb”, “after 3-4” for “after 6-7”

CON(C(=O)c1cn(C)nc1C(F)F)C1c2ccccc2CCC1C (stereo not shown) [Compound 1.011]
≥ 80%: curative fungicidal activity (inhibition) (Puccinia recondita [1]) | fungal growth inhibition [2] | preventive fungicidal activity (inhibition) [3] | fungal growth inhibition (Septoria tritici) | preventive fungicidal activity (inhibition) (Pyrenophora teres) | preventive fungicidal activity (inhibition) (Puccinia recondita [4])

COc1ccc2c(c1)C(N(OC)C(=O)c1cn(C)nc1C(F)F)CCC2 (stereo not shown) [Compound 1.018]
≥ 80%: curative fungicidal activity (inhibition) (Puccinia recondita [1]) | fungal growth inhibition [2] | preventive fungicidal activity (inhibition) [3] | fungal growth inhibition (Septoria tritici) | preventive fungicidal activity (inhibition) (Pyrenophora teres) | preventive fungicidal activity (inhibition) (Puccinia recondita [4])

COc1ccc2c(c1)CCCC2N(OC)C(=O)c1cn(C)nc1C(F)F (stereo not shown) [Compound 1.019]
≥ 80%: curative fungicidal activity (inhibition) (Puccinia recondita [1]) | fungal growth inhibition [2] | preventive fungicidal activity (inhibition) [3] | fungal growth inhibition (Septoria tritici) | preventive fungicidal activity (inhibition) (Pyrenophora teres) | preventive fungicidal activity (inhibition) (Puccinia recondita [4])

COc1cccc2c1CCCC2N(OC)C(=O)c1cn(C)nc1C(F)F (stereo not shown) [Compound 1.020]
≥ 80%: fungal growth inhibition [2] | fungal growth inhibition (Botrytis cinerea) | fungal growth inhibition (Septoria tritici) | preventive fungicidal activity (inhibition) (Pyrenophora teres) | preventive fungicidal activity (inhibition) (Puccinia recondita [4])

CON(C(=O)c1cn(C)nc1C(F)F)C1CCCc2cc(C)cc(C)c21 (stereo not shown) [Compound 1.030]
≥ 80%: curative fungicidal activity (inhibition) (Puccinia recondita [1]) | fungal growth inhibition [2] | preventive fungicidal activity (inhibition) [3] | fungal growth inhibition (Botrytis cinerea) | fungal growth inhibition (Septoria tritici) | preventive fungicidal activity (inhibition) (Pyrenophora teres) | preventive fungicidal activity (inhibition) (Puccinia recondita [4])

CON(C(=O)c1cn(C)nc1C(F)F)C1CCCc2c(C)cc(C)cc21 (stereo not shown) [Compound 1.033]
≥ 80%: fungal growth inhibition [2] | preventive fungicidal activity (inhibition) [3] | fungal growth inhibition (Botrytis cinerea) | fungal growth inhibition (Septoria tritici) | preventive fungicidal activity (inhibition) (Puccinia recondita [4])

CON(C(=O)c1cn(C)nc1C(F)F)C1CCOc2ccccc21 (stereo not shown) [Compound 1.041]
≥ 80%: curative fungicidal activity (inhibition) (Puccinia recondita [1]) | fungal growth inhibition [2] | preventive fungicidal activity (inhibition) [3] | fungal growth inhibition (Septoria tritici) | preventive fungicidal activity (inhibition) (Pyrenophora teres)

CON(C(=O)c1cn(C)nc1C(F)F)C1CCOc2ccc(Cl)cc21 (stereo not shown) [Compound 1.043]
≥ 80%: curative fungicidal activity (inhibition) (Puccinia recondita [1]) | fungal growth inhibition [2] | preventive fungicidal activity (inhibition) [3] | fungal growth inhibition (Septoria tritici) | preventive fungicidal activity (inhibition) (Puccinia recondita [4])

CON(C(=O)c1cn(C)nc1C(F)F)C1CCOc2c(Cl)cccc21 (stereo not shown) [Compound 1.045]
≥ 80%: fungal growth inhibition [2] | preventive fungicidal activity (inhibition) [3] | fungal growth inhibition (Septoria tritici) | preventive fungicidal activity (inhibition) (Pyrenophora teres)

CON(C(=O)c1cn(C)nc1C(F)F)C1CCOc2ccc(F)cc21 (stereo not shown) [Compound 1.047]
≥ 80%: curative fungicidal activity (inhibition) (Puccinia recondita [1]) | fungal growth inhibition [2] | preventive fungicidal activity (inhibition) [3] | fungal growth inhibition (Septoria tritici)

CON(C(=O)c1cn(C)nc1C(F)F)C1CCSc2ccccc21 (stereo not shown) [Compound 1.050]
≥ 80%: fungal growth inhibition [2] | fungal growth inhibition (Septoria tritici) | preventive fungicidal activity (inhibition) (Puccinia recondita [4])

CON(C(=O)c1cn(C)nc1C(F)F)C1CCCCc2ccccc21 (stereo not shown) [Compound 1.055]
≥ 80%: curative fungicidal activity (inhibition) (Puccinia recondita [1]) | fungal growth inhibition [2] | preventive fungicidal activity (inhibition) [3] | fungal growth inhibition (Botrytis cinerea) | fungal growth inhibition (Septoria tritici) | preventive fungicidal activity (inhibition) (Pyrenophora teres) | preventive fungicidal activity (inhibition) (Puccinia recondita [4])

CON(C(=O)c1cn(C)nc1C(F)F)C1CCCCc2ccc(Cl)cc21 (stereo not shown) [Compound 1.057]
≥ 80%: curative fungicidal activity (inhibition) (Puccinia recondita [1]) | fungal growth inhibition [2] | preventive fungicidal activity (inhibition) [3] | fungal growth inhibition (Botrytis cinerea) | fungal growth inhibition (Septoria tritici) | preventive fungicidal activity (inhibition) (Pyrenophora teres) | preventive fungicidal activity (inhibition) (Puccinia recondita [4])

CON(C(=O)c1cn(C)nc1C(F)F)C1CCCCc2cc(Cl)ccc21 (stereo not shown) [Compound 1.058]
≥ 80%: curative fungicidal activity (inhibition) (Puccinia recondita [1]) | fungal growth inhibition [2] | preventive fungicidal activity (inhibition) [3] | fungal growth inhibition (Septoria tritici) | preventive fungicidal activity (inhibition) (Pyrenophora teres) | preventive fungicidal activity (inhibition) (Puccinia recondita [4])

CON(C(=O)c1cn(C)nc1C(F)F)C1CCCCc2c(Cl)cccc21 (stereo not shown) [Compound 1.059]
≥ 80%: curative fungicidal activity (inhibition) (Puccinia recondita [1]) | fungal growth inhibition [2] | preventive fungicidal activity (inhibition) [3] | fungal growth inhibition (Botrytis cinerea) | fungal growth inhibition (Septoria tritici) | preventive fungicidal activity (inhibition) (Pyrenophora teres) | preventive fungicidal activity (inhibition) (Puccinia recondita [4])

CON(C(=O)c1cn(C)nc1C(F)F)C1c2cc(Cl)ccc2CCCC1F (stereo not shown) [Compound 1.067]
≥ 80%: curative fungicidal activity (inhibition) (Puccinia recondita [1]) | fungal growth inhibition [2] | preventive fungicidal activity (inhibition) [3] | fungal growth inhibition (Septoria tritici) | preventive fungicidal activity (inhibition) (Pyrenophora teres) | preventive fungicidal activity (inhibition) (Puccinia recondita [4])

CON(C(=O)c1cn(C)nc1C(F)F)C1CCCCc2ccc(N)cc21 (stereo not shown) [Compound 1.070]
≥ 80%: preventive fungicidal activity (inhibition) (Puccinia recondita [4])

CON(C(=O)c1cn(C)nc1C(F)F)C1CCCCc2ccc(NC(=O)OC(C)(C)C)cc21 (stereo not shown) [Compound 1.071]
≥ 80%: curative fungicidal activity (inhibition) (Puccinia recondita [1]) | fungal growth inhibition [2] | fungal growth inhibition (Septoria tritici) | preventive fungicidal activity (inhibition) (Puccinia recondita [4])

CON(C(=O)c1cn(C)nc1C(F)F)C1CCCCc2ccc(NC(C)=O)cc21 (stereo not shown) [Compound 1.072]
≥ 80%: fungal growth inhibition [2] | fungal growth inhibition (Septoria tritici) | preventive fungicidal activity (inhibition) (Pyrenophora teres)
